Test results taken from patent US12503463B2, “Aliphatic acid amide derivative” (Sumitomo Pharma Co., Ltd., priority 2019, dated 2025).
For at least one compound, name, drawing or mass did not settle the structure.

The chains behind the UniProt entries cited, without tags or fusion partners.
UniProt P14416, whole entry: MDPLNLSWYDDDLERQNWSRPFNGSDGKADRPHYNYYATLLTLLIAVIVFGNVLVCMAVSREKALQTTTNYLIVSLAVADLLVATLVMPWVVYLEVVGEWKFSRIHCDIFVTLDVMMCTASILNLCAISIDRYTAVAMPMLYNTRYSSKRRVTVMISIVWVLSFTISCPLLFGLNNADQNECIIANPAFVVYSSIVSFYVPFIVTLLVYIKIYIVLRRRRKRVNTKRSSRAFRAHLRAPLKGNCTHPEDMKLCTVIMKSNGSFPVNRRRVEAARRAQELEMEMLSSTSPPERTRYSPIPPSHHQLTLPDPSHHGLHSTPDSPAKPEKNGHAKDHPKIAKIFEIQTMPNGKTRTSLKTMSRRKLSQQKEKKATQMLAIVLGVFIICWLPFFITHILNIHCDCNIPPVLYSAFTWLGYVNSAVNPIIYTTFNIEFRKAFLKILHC

Target: T1, human D2 receptor (Homo sapiens, UniProt P14416)
T1 construct: purchased PerkinElmer, Inc; host or cells: CHO cells (membrane fraction)
Test: Test 1: binding activity for human D2 receptor ([3H]Spiperone, CHO cell membrane fraction)
Details: ratio of Ki values
Experimental: Ki value was evaluated from dissociation constant which was calculated from saturated binding tests, and a substrate concentration, and it was used as an index for binding affinity.

In the case of CCN(CCN1CCC(c2noc3cc(F)ccc23)CC1)C(=O)C(O)COC (stereo not shown) [Example 18, N-Ethyl-N-{2-[4-(6-fluoro-1,2-benzoisoxazol-3-yl)piperidin-1-yl]ethyl}-2-hydroxy-3-methoxypropanamide], the “D2 Ki/5-HT2A Ki” value is reported as 79 and the “D2 Ki/5-HT7 Ki” value is reported as 53.
CCN(CCN1CCC(c2noc3cc(F)ccc23)CC1)C(=O)C1(O)CC1 [Example 24] was tested, and the “D2 Ki/5-HT2A Ki” value was less than 95 and the “D2 Ki/5-HT7 Ki” value was less than 91.
